Data as given in PubChem BioAssay AID1487 (National Center for Advancing Translational Sciences (NCATS), 2009).
Among all 200,000 compounds or so, about 25 (0.01%) were called active. The inconclusive results got no clear call from the source; some entries with a clear call stand among them for comparison. The call rests on the fitted dose curve; in most records, active means well fitted inhibition curve with a large enough effect in the signal ratio, with a control signal flat (not every such curve was filed as active); inconclusive means small, poorly fitted or top-dose-only effect, or effect the other way, or a change in a side signal; inactive means flat fitted curve, though single readings scatter; the % refers to the signal ratio. Where the call is inconclusive, the potency comes from a doubtful curve fit.

Assay: qHTS Assay for Modulators of Lamin A Splicing
Conditions: HeLa LMNA splicing GFP/RFP minigene ratio, 48 h; ratio change, negative = inhibition: at 46.1 µM (top of the series) unless noted
How it was run: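 S3 HeLa stable clones carrying a lamin A-EGFP splicing minigene plus DsRed2 were seeded at 600 cells/well in Opti-MEM with 2% FBS, pin-dosed and incubated 48 h at 37°C. Acumen cytometry (488 nm) gave the GFP/RFP total-intensity ratio.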
On the % scale 0 is the no-effect control and ±100 the full control effect; potency means the concentration at half of the fitted maximal effect.

Compound	ratio change, negative = inhibition	Potency
COC(=O)C(CC(=O)c1ccc(Br)cc1)n1ccnc1 (stereo unspecified)	inconclusive: -47.9%	
COc1ccc(NC(=O)c2ccc3c(c2)OCO3)cc1[N+](=O)[O-]	inconclusive: 19.6% [at 46 µM]	
Cc1nnc(NC(=O)CSc2nc3c([nH]c4ccccc43)c(=O)n2-c2ccccc2)s1	inconclusive: 35.9% [at 46 µM]	
O=C(CC(Nc1ccc(F)cc1)C(=O)OCC(=O)c1cccs1)c1ccccc1 (stereo unspecified)	inactive: -13.9%	
O=C(N/N=C/c1ccc(O)cc1)c1cccc(C(F)(F)F)c1	inactive: -8.11%	
O=C(NNc1nc(-c2ccc(Cl)cc2)cs1)c1ccco1		inconclusive: 25.1 µM [fluorescent, single point]
CC(C)Oc1ccc(C(=O)Nc2ccc3c(c2)CCCN3C(=O)c2cccs2)cc1	inconclusive: -33.6% [at 46 µM]	
CCC(Sc1nc2ccccc2c2nc(CCn3cncc3C)nn12)C(=O)Nc1cccc(OC)c1 (stereo unspecified)		inconclusive: 15.8 µM [activator, partial curve]
COc1ccc(Cn2c(CNC(=O)c3ccc(N(C)C)cc3)nc3cccnc32)cc1	inconclusive: -3.57% [at 46 µM]	
C=C(C)COc1ccc(-c2[nH]ncc2-c2ccccc2OC)c(O)c1	inconclusive: -18.4%	
CCn1c(=NC(=O)c2ccc3c(c2)OCCO3)sc2c(C)ccc(OC)c21	inconclusive: -3.17% [at 46 µM]	
COc1cc([N+](=O)[O-])cc(/C=N/NC(=O)c2ccc(C)nc2)c1O	inactive: -17.8%	
Cc1ccc(OCC(=O)Nc2ccc(OCc3cc(=O)n4cccc(C)c4n3)cc2)cc1C	inconclusive: 2.91% [at 46 µM]	
Cc1ccc(-c2nnc(Nc3ccc(Br)cc3)c3ccccc23)cc1S(=O)(=O)N1CCN(C)CC1	inactive: 4.27% [at 46 µM]	
CCn1c(-c2csc(-c3ccccc3)n2)n[nH]c1=S	inconclusive: 11.6%	
CC(C)(C)NC(=O)C1CCCN(S(=O)(=O)c2cccc3cccnc23)C1 (stereo unspecified)	inactive: -4.93%	
O=C(O)CCCCCCCC(=O)O	inconclusive: 8.68%	
CN(NS(=O)(=O)c1ccc(Cl)cc1)c1nc(C(F)(F)F)nc2ccccc12	inconclusive: -30.9% [at 46 µM]	
CC(C)(C)c1ccc(S(=O)(=O)N(CCCN2CCOCC2)Cc2cccs2)cc1	inconclusive: -41.5%	
Clc1ccc(CNc2ccccc2NCc2ccc(Cl)nc2)cn1	inconclusive: 21.3% [at 46 µM]	
Cc1cc(=O)oc2cc(OCC(=O)NCc3ccccn3)ccc12	inactive: -3.9%	
COc1ccc(C(=O)COC(=O)C(CCCCN2C(=O)C3C4C=CC(C4)C3C2=O)N2C(=O)C3C4C=CC(C4)C3C2=O)cc1 (stereo unspecified)	inactive: 4.12%	
CCCCc1nc2c(c3c1C[C@H](C)OC3)CN(S(=O)(=O)c1ccc(C#N)cc1)CC2	inconclusive: 3.62% [at 9.22 µM]	
CCOc1ccc2nc(SCCNS(=O)(=O)c3ccccc3)sc2c1		inconclusive: 35.5 µM [fluorescent, single point]
CN(C)c1ccc(N=Cc2nc(-c3ccccc3)oc2OC(=O)c2ccccc2)cc1	inconclusive: -4.05%	
CCN(C(=O)COC(=O)/C=C/c1ccccc1)C1CCCCC1	inactive: -9.32% [at 46 µM]	

Compound	ratio change, negative = inhibition	Potency
CCOc1ccc2c(c1)-c1c(ssc1=S)C(C)(C)N2C	inconclusive: -20.8%	
COc1cc(S(=O)(=O)Nc2ccc(C)cc2)ccc1N=Cc1c(C)c(C#N)c(=O)n(C)c1O		inconclusive: 35.5 µM [activator, single point]
Cc1oc2c(c1C(=O)Nc1ccccc1Br)C1=NCCN1C=N2	inactive: 9.19% [at 46 µM]	
Cc1nc2ccc(NC(=O)c3ccc(F)c(S(=O)(=O)N4CCOCC4)c3)cc2s1		inconclusive: 11.2 µM [fluorescent, single point]
Cc1nonc1C1CCCN1C(=O)c1cc(COc2ccc(F)cc2F)on1 (stereo unspecified)	inconclusive: 18.5% [at 46 µM]	
COc1ccc(C2=NCC(CSc3nnc(-c4ccc5c(c4)OCO5)o3)S2)cc1 (stereo unspecified)	inconclusive: -32.9%	
COc1ccc(N/C=C2/CCCCC2=O)cc1	inactive: 28.8%	
CN(C)CCN(Cc1cc2cc3c(cc2[nH]c1=O)OCCO3)C(=S)NCC1CCCO1 (stereo unspecified)	inconclusive: 1.86% [at 46 µM]	
O=C(NNC(=O)c1ccc([N+](=O)[O-])cc1)c1ccncc1	inactive: -6.67%	
COc1ccc(CNC(=O)CCCN2C(=O)c3ccccc3C2=O)cc1	inconclusive: -0.251% [at 46 µM]	
Cc1c(Cl)cccc1NC(=O)CCC(=O)NNC(=O)CCC(=O)O	inactive: -7.16% [at 46 µM]	
Nc1ncnc2nc(SCCc3ccccc3)[nH]c12	inconclusive: 17.7%	
COc1cc2c(cc1NC(=O)C(C)Sc1cccc[n+]1[O-])oc1ccccc12 (stereo unspecified)	inconclusive: -21.9%	
O=C(NCCc1ccc(Cl)cc1)C(=O)NCC(c1ccc2c(c1)OCO2)N1CCOCC1 (stereo unspecified)	inactive: -8.21% [at 46 µM]	
Cc1ccc(NC(=O)c2cc3c(s2)CCCC3)cc1	inconclusive: -3.96% [at 46 µM]	
O=C1CN(CC(=O)N2CCCCC2)c2ccccc2O1	inconclusive: 4.83%	
CCOc1cccc(OCCOc2ccc(C(=O)c3ccccc3)cc2)c1		inconclusive: 35.5 µM [fluorescent, single point]
O=C(Nc1ccc(Oc2ccccc2)cc1)C1CCCO1 (stereo unspecified)	inconclusive: 19.2%	
Cc1ncc(C[n+]2csc(CCO)c2C)c(N)n1	inconclusive: -15%	
O=C1C2C3C=CC(C2C(=O)N1C1CCCCC1)C1C2C(=O)N(C4CCCCC4)C(=O)C2C31 (stereo unspecified)	inactive: 0.466%	
COc1ccc(S(=O)(=O)NCC(c2cccnc2)N2CCN(c3ccccc3OC)CC2)cc1C (stereo unspecified)	inactive: -3.32%	
O=C(Nc1ccc2c(c1)OCCO2)c1cc(-c2ccccc2)nc2ccccc12	inconclusive: 12.6%	
CCOc1ccc(CN(C)CC(=O)Nc2cccc(C)c2)cc1OC	inconclusive: -9.5% [at 46 µM]	
CCCn1c(SCC#N)nc2c(c1=O)C1(CCCC1)Cc1ccccc1-2		inconclusive: 35.5 µM [fluorescent, single point]
Clc1ccc(Nc2ncnc3ccc(Br)cc23)cc1		inconclusive: 15.8 µM [fluorescent, partial curve]

Individual results from the list.
CCCn1c(SCC#N)nc2c(c1=O)C1(CCCC1)Cc1ccccc1-2 | Potency: inconclusive: 35.5 µM [fluorescent, single point]
Cc1oc2c(c1C(=O)Nc1ccccc1Br)C1=NCCN1C=N2 | ratio change, negative = inhibition: inactive: 9.19% [at 46 µM]
